This data set relates to MVP. Description: MVP expression in kidneys of peptide-treated mice (immunoblotting). To be noted: 2400 ug/kg intraperitoneally, three times/week for 4-weeks. Type of data set: in vivo.

Take GRGDSP [cyclic-GRGDSP]: the “MVP expression in kidneys” value is listed as “no significant changes”.

As to “GRGESP (cyclised or stapled) [cyclic-GRGESP, RGE peptide used as negative control, reference compound]”, the “MVP expression in kidneys” value is on record as “no significant changes”.

(Values after US20140194361A1, “Vault Agents for Treating Chronic Kidney Disease” (priority 2010, published 2014).)
